Patent US20200046796A1 (TECHNION RESEARCH AND DEVELOPMENT FOUNDATION, published 2020)
Results are given in words; binding and its absence hold for the method and conditions named. Binding seen in cells or lysates may run through a third protein. Some results given as binding are weak or reduced against the parent protein; the word gives no strength.

Amino acid sequences for entries named in this document (tags omitted). Residues count along the entry.
UniProt P26231, residues 2-906: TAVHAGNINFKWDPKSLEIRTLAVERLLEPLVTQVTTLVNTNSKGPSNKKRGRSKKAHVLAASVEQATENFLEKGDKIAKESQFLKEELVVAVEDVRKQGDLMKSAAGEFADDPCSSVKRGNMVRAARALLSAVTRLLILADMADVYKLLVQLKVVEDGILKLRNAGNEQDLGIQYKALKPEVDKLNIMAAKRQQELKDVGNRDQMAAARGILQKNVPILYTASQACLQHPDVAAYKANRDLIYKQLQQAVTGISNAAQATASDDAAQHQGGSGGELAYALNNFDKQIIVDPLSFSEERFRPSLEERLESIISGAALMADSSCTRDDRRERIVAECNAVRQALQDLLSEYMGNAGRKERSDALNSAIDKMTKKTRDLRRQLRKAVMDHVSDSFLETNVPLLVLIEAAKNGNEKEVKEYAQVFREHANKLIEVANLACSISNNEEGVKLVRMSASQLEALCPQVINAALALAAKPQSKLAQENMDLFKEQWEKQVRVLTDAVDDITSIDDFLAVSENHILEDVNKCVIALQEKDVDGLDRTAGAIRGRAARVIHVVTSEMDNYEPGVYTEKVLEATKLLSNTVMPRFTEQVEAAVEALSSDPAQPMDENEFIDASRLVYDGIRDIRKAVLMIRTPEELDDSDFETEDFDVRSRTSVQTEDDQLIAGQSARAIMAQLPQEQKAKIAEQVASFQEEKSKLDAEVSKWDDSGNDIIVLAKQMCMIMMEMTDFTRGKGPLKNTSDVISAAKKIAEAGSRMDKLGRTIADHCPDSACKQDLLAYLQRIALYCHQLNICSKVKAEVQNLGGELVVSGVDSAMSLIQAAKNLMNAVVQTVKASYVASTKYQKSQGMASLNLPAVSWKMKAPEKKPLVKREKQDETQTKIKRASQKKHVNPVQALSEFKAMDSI

T1: activated (cleaved) Caspase-3 (endogenous, from mouse dorsal skin) (mouse) (UniProt P70677)
T1 sequence (looked up): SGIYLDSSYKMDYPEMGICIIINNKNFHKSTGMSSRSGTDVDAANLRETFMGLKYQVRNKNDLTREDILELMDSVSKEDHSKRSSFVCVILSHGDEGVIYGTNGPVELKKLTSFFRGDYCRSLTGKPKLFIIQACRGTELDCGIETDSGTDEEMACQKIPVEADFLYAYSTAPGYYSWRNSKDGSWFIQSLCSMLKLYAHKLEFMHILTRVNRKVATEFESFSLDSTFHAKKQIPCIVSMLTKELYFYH

B1: activated (cleaved) Caspase-3 (endogenous, from mouse dorsal skin) (enzyme, UniProt P70677 29-277, looked up)
chain: T1 sequence (looked up)
notes: also called CP3

Assays:
[1] = molecular target: T1, activated (cleaved) Caspase-3 (endogenous, from mouse dorsal skin) (mouse); test: co-immunoprecipitation of endogenous proteins from mouse skin
[2] = molecular target: T1, activated (cleaved) Caspase-3 (endogenous, from mouse dorsal skin) (mouse); test: co-immunoprecipitation of endogenous proteins from mouse skin, Western blot
[3] = molecular target: α-Catenin (endogenous, from mouse dorsal skin) (mouse) (UniProt P26231); test: co-immunoprecipitation and cleavage assays, summed up

Row | Molecule | binding [1] | binding [2] | binding [3]
1 | α-Catenin (endogenous, from mouse dorsal skin) (from UniProt P26231 2-906) | binds | binds | –
2 | B1 | – | – | binds
